No constants are given. Whether binding was seen depends on the method and setting.
Columns and labels:
[1] = biological target: PLCε EF3-RA1 (phospholipase Cε, R. norvegicus, residues 1284–2098), TEV-cleaved, as crystallised (R. norvegicus) (UniProt Q99P84); experiment: crystal structure; 2.7 Å; four copies in the asymmetric unit arranged as two nearly identical dimers; the αX–Y helix packs against EF3/4 of the same chain in an adjacent unit cell; crystals from 100 mM MES pH 5.8, 0.2 M NaCl, 6.5% PEG 8000, 12 °C, equimolar CaCl2; both purified
[2] = biological target: PLCε EF3-RA1 (phospholipase Cε, R. norvegicus, residues 1284–2098), as used for SEC-SAXS (R. norvegicus) (UniProt Q99P84); experiment: SEC + other: SAXS; SEC-SAXS; Superdex 200 Increase 10/300 GL; EF3-RA1 at 2–3 mg/mL in S200 buffer (50 mM Tris-Cl pH 7.5, 200 mM NaCl, 2 mM DTT, 0.1 mM EDTA, 0.1 mM EGTA); both purified

Sequences of proteins named here, by UniProt entry; tags and fusion partners are left off. Residues count along the entry.
UniProt Q99P84, residues 1284-2098: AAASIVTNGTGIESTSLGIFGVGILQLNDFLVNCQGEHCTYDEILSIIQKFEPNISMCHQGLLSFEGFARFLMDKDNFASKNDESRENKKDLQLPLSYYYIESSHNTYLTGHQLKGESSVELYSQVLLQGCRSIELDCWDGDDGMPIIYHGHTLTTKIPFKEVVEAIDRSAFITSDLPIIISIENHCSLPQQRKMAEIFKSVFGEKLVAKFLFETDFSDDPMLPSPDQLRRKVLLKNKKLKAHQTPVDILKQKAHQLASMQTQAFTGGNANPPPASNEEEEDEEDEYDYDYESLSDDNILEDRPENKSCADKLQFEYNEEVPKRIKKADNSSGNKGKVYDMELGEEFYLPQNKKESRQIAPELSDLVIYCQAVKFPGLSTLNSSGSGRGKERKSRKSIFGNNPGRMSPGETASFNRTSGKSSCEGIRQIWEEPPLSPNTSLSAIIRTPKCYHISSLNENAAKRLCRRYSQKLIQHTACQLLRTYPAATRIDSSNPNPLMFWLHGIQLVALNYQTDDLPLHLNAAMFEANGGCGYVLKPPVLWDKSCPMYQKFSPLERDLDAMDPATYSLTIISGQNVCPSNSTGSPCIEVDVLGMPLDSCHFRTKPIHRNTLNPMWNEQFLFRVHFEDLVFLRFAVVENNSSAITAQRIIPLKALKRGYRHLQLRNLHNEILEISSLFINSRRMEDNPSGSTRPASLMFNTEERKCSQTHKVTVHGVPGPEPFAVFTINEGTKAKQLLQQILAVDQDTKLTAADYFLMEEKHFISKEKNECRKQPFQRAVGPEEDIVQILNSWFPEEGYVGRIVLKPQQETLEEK

Substance	binding [1]	binding [2]
PLCε EF3-RA1 (phospholipase Cε, R. norvegicus, residues 1284–2098), TEV-cleaved, as crystallised (from UniProt Q99P84 1284-2098) (domain or fragment)	no binding	–
PLCε EF3-RA1 (phospholipase Cε, R. norvegicus, residues 1284–2098), as used for SEC-SAXS (from UniProt Q99P84 1284-2098) (domain or fragment)	–	no binding (tested: 2–3 mg/mL)
